pIC50: −log10 of the molar value.

Chains of the proteins cited; added tags and fusions are not shown. Lines headed by an entry give the natural chain unless they say otherwise; changes in a name come on top.
UniProt P30291: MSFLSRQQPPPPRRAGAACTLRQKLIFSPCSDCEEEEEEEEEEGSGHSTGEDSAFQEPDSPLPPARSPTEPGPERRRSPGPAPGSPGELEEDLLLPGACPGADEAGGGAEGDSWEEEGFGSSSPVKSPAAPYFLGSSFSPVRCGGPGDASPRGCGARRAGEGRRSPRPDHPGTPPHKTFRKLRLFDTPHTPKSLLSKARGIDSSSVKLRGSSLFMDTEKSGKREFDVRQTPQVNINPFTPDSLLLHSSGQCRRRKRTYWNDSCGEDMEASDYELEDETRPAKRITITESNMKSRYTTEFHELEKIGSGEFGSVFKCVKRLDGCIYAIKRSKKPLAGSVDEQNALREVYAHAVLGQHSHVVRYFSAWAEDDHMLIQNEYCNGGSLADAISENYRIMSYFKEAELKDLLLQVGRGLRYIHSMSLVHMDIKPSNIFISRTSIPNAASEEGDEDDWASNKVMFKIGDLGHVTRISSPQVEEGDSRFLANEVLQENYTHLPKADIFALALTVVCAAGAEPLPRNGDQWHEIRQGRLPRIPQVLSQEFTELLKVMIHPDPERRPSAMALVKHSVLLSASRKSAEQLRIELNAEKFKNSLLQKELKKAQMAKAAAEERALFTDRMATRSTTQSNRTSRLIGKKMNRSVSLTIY

In the assay the target is Wee1-like protein kinase (Homo sapiens, UniProt P30291).

`Nc1cccc(-c2cc3[nH]c4ccc(O)cc4c3c3c2C(=O)NC3=O)c1Cl` [4-(3-amino-2-chlorophenyl)-9-hydroxypyrrolo[3,4-c]carbazole-1,3(2H,6H)-dione] showed a pIC50 of 7.92.
